Data published in PubChem BioAssay AID504444 (National Center for Advancing Translational Sciences (NCATS), 2011).
The campaign covered roughly 360,000 compounds. About 7,500 (2.1%) were called active. The shares of active, inactive and inconclusive entries below differ from those in the screen. Calls follow the shape of the dose curve; as a rule, active = well fitted inhibition curve with a large enough effect; inconclusive = small, poorly fitted or top-dose-only effect, or effect the other way; inactive = flat fitted curve, though single readings scatter. Potencies of inconclusive entries are doubtful fits and often do not repeat.

Test: Nrf2 qHTS screen for inhibitors; also: nearly all actives have a fitted effect of over 60% in size
Conditions: A549 ARE-Fluc reporter, luciferase luminescence, 18-24 h; series mostly up to 46 µM
In short: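 A549 ARE_Fluc cells (5000/well, 5% FBS OPTI-MEM) pre-incubated 2 h, then treated with compounds 18-24 h at 37C/5% CO2 in concentration-response. CellTiter-Fluor viability read first; BugLite luciferase luminescence after 15 min at room temperature gives Nrf2 activity.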
Potency is read from the fitted curve at half-maximal effect.

SMILES | Potency
COc1ccc(C(=S)N2CCOCC2)cc1OC(=O)c1cccc([N+](=O)[O-])c1 | inactive
O=C(Nc1cccnc1)c1cc2nc(C3CC3)cc(C(F)(F)F)n2n1 | inconclusive: 29.1 µM [activator, single point]
O=C(N/N=C/c1cc([N+](=O)[O-])ccc1O)c1cccc2cc[nH]c12 | active: 23.1 µM
Cc1ccccc1OCCC(=O)OCC(=O)NC(=O)c1ccccc1 | inconclusive: 23.1 µM [falling, partial curve, poor fit]
COc1ccc(Nc2nc(N)nc(CSc3nc4cc(OC)ccc4s3)n2)cc1 | inconclusive: 14.6 µM [falling, partial curve, poor fit]
O=C(c1ccccc1)c1ccc(Sc2ccc([N+](=O)[O-])cc2)cc1 | inconclusive: 23.1 µM [falling, single point]
COc1ccc(NC(=O)Cc2csc(COc3cccc(C)c3)n2)c(OC)c1 | inconclusive: 9.2 µM [falling, partial curve, poor fit]
O=C(c1cccc(F)c1)N1CCN(C(=O)c2cc(-c3ccc(Cl)cc3Cl)on2)CC1 | inconclusive: 23.1 µM [falling, single point]
COc1ccc([N+](=O)[O-])cc1NC(=O)C(C)Sc1nc(C)c(C)c(C)n1 (configuration not stated) | inactive
CC(OC(=O)c1cccs1)C(=O)NC1CC1 (configuration not stated) | inconclusive: 25.9 µM [falling, single point]
Cc1ccc(C(=O)c2coc3c2C(=O)C(=O)c2ccccc2-3)cc1 | inconclusive: 7.31 µM [falling, partial curve, poor fit]
O=C(N/N=C/c1ccccc1[N+](=O)[O-])c1ccc(CN2CCOCC2)cc1 | inconclusive: 29.1 µM [activator, single point]
CCN1C(=O)c2cccc3c(S(=O)(=O)N(C(=O)c4cccnc4)c4ccc(OC)cc4)ccc1c23 | inconclusive: 18.4 µM [falling, single point]
COc1ccc(C(CCN2CCN(c3ccccc3)CC2)c2c(OC)cc(OC)c3c(-c4ccccc4)cc(=O)oc23)cc1 (configuration not stated) | inconclusive: 20.6 µM [activator, partial curve, poor fit]
CS(=O)(=O)N(CC(=O)N1CCN(c2ccc(F)cc2)CC1)c1ccc(F)c(Cl)c1 | inconclusive: 10.3 µM [falling, partial curve]
CCC(CC)C(=O)Nc1ccc2nc(SCC(=O)N3c4ccccc4CC3C)sc2c1 (configuration not stated) | inconclusive: 16.4 µM [activator, partial curve]
O=C(Cc1ccc(Cl)cc1Cl)Nc1ccc(OC(F)F)c(Cl)c1 | inconclusive: 29.1 µM [falling, single point]
Clc1ccc(C(c2ccccc2Cl)C(Cl)Cl)cc1 (configuration not stated) | inconclusive: 0.0041 µM [falling, full curve, poor fit]
CCOC(=O)C1(CC)NC(c2ccc(N(C)C)cc2)C2C(=O)N(C)C(=O)C21 (configuration not stated) | inconclusive: 6.51 µM [activator, full curve, poor fit]
CCN(CC)S(=O)(=O)c1cccc(NC(=O)CCSc2ccc(Cl)cc2)c1 | inconclusive: 5.17 µM [falling, single point]
N#Cc1c(SC(C(=O)O)c2ccccc2)nc2c(c1-c1cccs1)CCCC2 (configuration not stated) | inconclusive: 29.1 µM [falling, single point]
O=C(c1ccccc1)N1CCCN(c2nccc(C(F)(F)F)n2)CC1 | inconclusive: 23.1 µM [activator, single point]
Cc1cc(=O)oc2c(C)c(OCC(=O)N(C)C)ccc12 | inactive

An excerpt taken from the entries so far, for reference:
SMILES | Potency
Clc1ccc(C(c2ccccc2Cl)C(Cl)Cl)cc1 (configuration not stated) | inconclusive: 0.0041 µM [falling, full curve, poor fit]
CCOC(=O)C1(CC)NC(c2ccc(N(C)C)cc2)C2C(=O)N(C)C(=O)C21 (configuration not stated) | inconclusive: 6.51 µM [activator, full curve, poor fit]

Additional records follow:

SMILES | Potency
COc1cccc(NC(=O)C2CCN(S(=O)(=O)c3ccc4c(c3)OCCO4)CC2)c1 | inconclusive: 20.6 µM [falling, partial curve]
CC(C)COc1ccccc1C1CC(=O)Nc2cc3c(cc21)OCO3 (configuration not stated) | active: 8.2 µM
Nc1nc(SCc2ccccc2Cl)nc2nc3c(cc12)CCCC3 | inactive
Cn1cnnc1Sc1ccc(S(C)(=O)=O)cc1[N+](=O)[O-] | inconclusive: 8.2 µM [falling, partial curve, poor fit]
O=S(=O)(c1ccc2ccccc2c1)N1CCN(C(=S)Nc2ccc(F)c(Cl)c2)CC1 | inconclusive: 20.6 µM [falling, single point]
Cc1ccc(NC(=O)c2ccc(F)c(S(=O)(=O)N3CCOCC3)c2)cc1F | active: 13 µM
O=C(Nc1cc2c(cc1Cl)OCCO2)c1ccco1 | inconclusive: 7.31 µM [activator, partial curve, poor fit]
Cc1ccc(NC(=O)CCCSc2nc3ccccc3[nH]2)cc1 | inactive
CC(=O)Nc1ccc(SCCN2CCN(CC(C)C)CCC2=O)cc1 | inactive
O=c1[nH]c(CSc2nnc(COc3ccccc3)n2-c2ccccc2)nc2ccccc12 | inconclusive: 32.6 µM [falling, single point]
Cc1oc(S(=O)(=O)N2CCCCC2)cc1NC(=O)Nc1ccc(Cl)cc1 | inconclusive: 32.6 µM [falling, single point]
COc1cccc(CNC(=O)Cn2ccc3cc(S(=O)(=O)N4CCC(C)CC4)ccc32)c1 | inactive
CCN(CC)S(=O)(=O)c1ccc(N2CCOCC2)c(NC(=O)c2ccccc2F)c1 | inactive
O=C(CC1CCCC1)NCCS(=O)(=O)N1CCN(c2ccc(F)cc2)CC1 | inconclusive: 25.9 µM [falling, partial curve, poor fit]
COCCNc1ncnc2c1cnn2Cc1ccccc1Cl | inconclusive: 18.4 µM [falling, single point]
Cn1c(=O)c2c(-c3ccccc3Br)n(CCc3ccccc3)cc2n(C)c1=O | inconclusive: 25.9 µM [falling, single point]
O=C1O[C@H]([C@@H](O)CO)C(O)=C1O | inconclusive: 20.6 µM [falling, partial curve, poor fit]
Clc1ccccc1Cc1cn2cc(-c3ccccc3)nc2s1 | inconclusive: 0.206 µM [activator, full curve, poor fit]
Cc1[nH]c2ccccc2c1CCNC(=O)c1ccc2c(c1[N+](=O)[O-])C(=O)c1ccccc1C2=O | inactive
Cc1cccnc1NC(=O)c1cc2ccccc2oc1=O | inconclusive: 13 µM [activator, single point]
COc1ccc(-c2nc3cnccn3c2Nc2ccc3c(c2)OCO3)cc1 | inconclusive: 18.4 µM [falling, single point]
CC(=O)OCC(=O)N1N=C(c2ccc3ccccc3c2)CC1c1ccccc1 (configuration not stated) | inconclusive: 29.1 µM [activator, single point]
CCCCCC1CCC(C(=O)O)CC1 (configuration not stated) | inconclusive: 14.6 µM [falling, partial curve]

SMILES | Potency
CCCC(=O)c1ccc(N2CCCC2)c(F)c1 | inconclusive: 20.6 µM [activator, single point]
COc1ccc(C(=O)NCC(=O)NCC(=O)OCC(=O)c2ccc(Br)cc2)cc1 | inactive
Cc1ccnc(SCC(=O)c2ccc(Br)s2)n1 | inconclusive: 16.4 µM [activator, partial curve]
COc1ccc(C(=O)COC(=O)c2ccc3c(c2)OCCO3)c(OC)c1 | inconclusive: 18.4 µM [activator, single point]
Cc1cc(-n2c(SCC(=O)Nc3ccc(Br)cc3)nc3n[nH]c(C)c3c2=N)ccc1Cl | inconclusive: 20.6 µM [falling, single point]
O=C1/C(=C/c2cccs2)SC(=S)N1CC(=O)N1CCCCC1CCO (configuration not stated) | inconclusive: 1.3 µM [falling, full curve, poor fit]
Cc1ccc(S(=O)(=O)N(C)C)cc1NC(=S)NC1CCCC(C)C1C (configuration not stated) | inconclusive: 29.1 µM [falling, single point]
Cc1cc2c(n1-c1ccc(C(N)=O)cc1)CC(C)(C)CC2=O | inactive
CN(C(=O)c1cnccn1)c1c(N)n(Cc2ccccc2)c(=O)[nH]c1=O | inactive
CCn1nc(C(=O)NNS(=O)(=O)c2ccc(C)cc2)c2ccccc2c1=O | inconclusive: 20.6 µM [falling, partial curve, poor fit]
COc1ccc(CCNc2nc(=S)[nH]c3cc(OC)c(OC)cc23)cc1OC | inactive
CCC(C)n1c(SCC(=O)Nc2ccccc2C(F)(F)F)nc2ccsc2c1=O (configuration not stated) | inconclusive: 29.1 µM [falling, single point]
COCC1CCCN(C(=O)c2cc(COc3ccc4ncccc4c3)on2)C1 (configuration not stated) | active: 8.2 µM
NC(=NCCc1c[nH]c2ccccc12)NS(=O)(=O)c1ccc(F)cc1 | inactive
COc1ccc2oc(C(=O)OC(C)C(=O)N3CCC(C)CC3)c(C)c2c1 (configuration not stated) | inconclusive: 16.4 µM [falling, partial curve]
COc1ccc(Nc2nc(N)nc(CSC(=S)N3CCCCC3)n2)cc1 | inconclusive: 16.4 µM [activator, partial curve, poor fit]
O=C(Nc1ccc(Cl)cc1-c1nc2ccccc2s1)c1ccco1 | inconclusive: 32.6 µM [falling, single point]
CC(=O)c1ccc(N2CCN(C(=O)c3cc(-c4cccnc4)nc4ccc(Br)cc34)CC2)cc1 | inactive
NC(=O)C1CCN(c2nc(-c3ccccc3C(F)(F)F)cs2)CC1 | inconclusive: 6.51 µM [activator, partial curve]
CCN(CC)CCN(C)C(=O)c1ccc(OC2CCN(C(=O)C3CC3)CC2)cc1 | inconclusive: 23.1 µM [activator, partial curve, poor fit]
Cc1ccc(-n2nc(C)c3c(C(=O)Nc4ccc(Br)c(C)c4)cc(C)nc32)cc1 | inconclusive: 7.31 µM [activator, partial curve, poor fit]

3 entries picked at random from those above, as already listed:
SMILES | Potency
CCn1nc(C(=O)NNS(=O)(=O)c2ccc(C)cc2)c2ccccc2c1=O | inconclusive: 20.6 µM [falling, partial curve, poor fit]
CCC(C)n1c(SCC(=O)Nc2ccccc2C(F)(F)F)nc2ccsc2c1=O (configuration not stated) | inconclusive: 29.1 µM [falling, single point]
COc1ccc(NC(=O)Cc2csc(COc3cccc(C)c3)n2)c(OC)c1 | inconclusive: 9.2 µM [falling, partial curve, poor fit]
